Laboratory results from the supplement of paper PMC3334620.
Whole data set: some 33,000 sequences, median “E-score (-0.5 to 0.5)” near -0.0059, cut for the highest 2% near 0.26. The list shows a part of the results.

Each sequence was assayed against T1, Cin5 (UniProt P40917) (assay: PBM E-score (8-mer binding enrichment) (E-score (-0.5 to 0.5)); higher = stronger / more preferred TF binding). Details: protein concentration: 100 nM; construct: GST-full length.
T1 sequence: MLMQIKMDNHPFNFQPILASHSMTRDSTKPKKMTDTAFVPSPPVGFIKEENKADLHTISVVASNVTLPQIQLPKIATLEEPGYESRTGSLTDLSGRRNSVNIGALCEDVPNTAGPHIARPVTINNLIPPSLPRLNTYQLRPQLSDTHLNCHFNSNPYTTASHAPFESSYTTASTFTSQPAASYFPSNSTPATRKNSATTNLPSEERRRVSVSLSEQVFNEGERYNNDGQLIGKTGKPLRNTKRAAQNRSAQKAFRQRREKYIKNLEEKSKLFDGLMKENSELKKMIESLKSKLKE
Procedure, shortened: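 Detection of bound protein used fluorescent anti-GST, with scans normalised by masliner. The proteins were GST-tagged yeast transcription factors applied at about 100-200 nM to universal all-10-mer Agilent arrays made double-stranded by primer extension. Each ungapped eight-base word, pooled with its reverse complement, was scored with an E-score from the Universal PBM Analysis Suite.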

Sequence	PBM E-score
CCACGTGG	-0.213
AACACGGG	0.0354
GGGTCATA	-0.137
ACAAATCC	0.213
CCGTAAGC	0.332
GTGGTCGA	-0.213
AGGTTCAC	-0.0538
CGCGTGAG	0.0663
AGCGAGCT	0.161
AAACTACT	0.127
GACCGGTA	-0.281
GAGTTCGC	-0.0925
CAATCTAA	-0.0172
AGTGTATA	0.0171
GCTAGTAA	0.0686
ACTCCAGG	-0.113
AACGGAGA	0.0467
ATATCGCG	0.301
GAGGAGCC	-0.304
CCTAGCCC	-0.136
AAAGATGT	0.1
CGTTGATC	0.0352
CACAGGCA	-0.0654
ACTGTGGC	-0.203
ACGCGTGA	0.174

Sequence	PBM E-score
CATTCACC	0.15
CGTGCGTC	-0.0137
CAAGGCTG	-0.104
GGCAGTCA	-0.0167
CCTAAAAG	-0.301
CAGGAAAG	-0.147
AACGTACA	0.123
GGTAACTA	0.155
CGGCCGGC	-0.186
CGCCTTAG	-0.0138
CTCCACTC	-0.232
CAGAAACC	0.0186
CGTTCGGA	0.057
CACAGGGA	-0.183
AACGCCCA	0.0379
AGCTGTCA	0.0252
AACGGCTC	-0.0975
CAACGTGC	0.102
CTCCGTCC	-0.302
AGCACCAT	-0.183
ATATAGCG	-0.0366
AGGTAAAC	0.183
AGCTCTAT	-0.0419
CGTGCAAG	-0.121
GAATCCAC	0.00882

Reformatted as a markdown table: entries from further up

| Sequence | PBM E-score |
| --- | --- |
| CGGCCGGC | -0.186 |
| CGCCTTAG | -0.0138 |
| CTCCACTC | -0.232 |

Next records follow.

Sequence	PBM E-score
CATATCCG	0.0661
GCGGCTCC	-0.325
AGCACCCG	-0.171
CCGTGGCA	-0.0963
CGCTTAGC	-0.0166
ACGAATAT	0.193
GACAGCGA	-0.121
CTTAATTC	0.0475
GGATCACC	-0.103
GTACGACA	0.0253
GGTTATTA	0.0772
ATCACCCA	-0.141
GGAATCCC	-0.04
ACCTATTG	-0.0597
ACGCATTC	-0.0717
CACAGATA	-0.0141
GGGGCTTA	-0.0994
AGGGACAC	0.0562
CAGTCTGC	-0.154
ACTTTAGA	0.0646
AAACACCG	0.0583
ACGATAGC	0.0674
AGCGACGC	-0.155
ACTTCACG	-0.122
ATGACCAC	-0.031

Sequence	PBM E-score
GATTCAAC	0.0352
GTGCGGAA	0.0768
GGACCATA	-0.155
AATTCCGC	0.133
AAAAGCAT	0.0882
CAAGGATC	0.0191
CCCGGCAG	-0.0204
ATGCGTGG	-0.185
ACTAGATC	-0.0649
GACCTCGA	0.0396
ACCTAACG	-0.1
ATCCGTGA	0.00318
ATCTAAGG	0.115
TTGAACAA	-0.0331
AAAGTGTA	0.089
TCGCTTAA	0.124
AGACCGTA	-0.284
ATGACGCG	0.138
CTCACTTA	0.0594
CACGTGGA	0.0737
AACTGTCC	-0.091
CGCCCTAG	-0.174
TGATTGAA	0.172
CTCGTAAA	-0.0596
CATGTTTC	0.206

Two consecutive entries from above:
Sequence	PBM E-score
ACAAATCC	0.213
CCGTAAGC	0.332

Remaining list, next part

Sequence	PBM E-score
ATTTATCA	0.209
AGGCCCGA	-0.13
ACGAAAGA	0.107
GGACTCAA	-0.172
ATAACGAG	-0.00418
GGAACGCA	-0.0875
CACTTAGA	0.0661
CGTTACAA	0.0849
GTAACAGA	0.106
CCCGCGAC	-0.193
AGTTAGCG	0.182
CAAGCCCC	-0.209
GAGCGGCA	-0.145
ATATAAAT	0.28
CAGTGACA	-0.0532
AACCCAAA	0.0922
ACTAGCTG	0.0183
ATAGAGAG	-0.2
TGTTGCAA	0.18
TATGAGCA	-0.101
GGTATACC	-0.0512
CACCGAGC	-0.0593
CCATGCAC	-0.152
GGGGACCA	-0.151
AGTGTTCC	-0.0301

Sequence	PBM E-score
ACTTTTCC	0.237
CGTTATTC	-0.0422
GCTGAGAA	-0.0505
AGCATGTA	0.0616
CTTATGAC	0.0887
GAATTCGA	0.0262
AATCCTGT	0.0812
CAAGCTCA	-0.168
AGCGGTGG	-0.128
CGATTATA	0.138
AAGTCCTC	-0.131
AAAGCGGC	0.0759
CGAAGTTA	0.161
CTCTCTTA	0.00883
AGTGCTCA	-0.185
ACTTTAAA	0.14
AGACGTGG	-0.0786
CGAATAAC	0.157
ACCGAGGT	-0.138
GAGCCAGC	-0.272
GTGTTCAA	-0.0233
CCTCACCG	-0.182
CCCCCGAC	-0.315
CTAGGTAA	0.0544
TAACTCGA	0.148

Sequence	PBM E-score
AACTTGTC	0.0383
CAGTAGCG	-0.0667
ACCGCTAG	-0.0932
AAACGAGG	-0.108
ACACGTGA	0.14
TATATTAA	0.287
ACTGCGAC	-0.0354
CACCTGCC	0.045
AGATGTAT	0.189
ACAGAATC	-0.0255
AAAGGAGT	0.0979
ACCTGGTG	-0.185
GGTCCAAC	-0.147
AATCGCGG	0.0556
GATGTACA	0.116
GACTGAAC	-0.179
CGTCAGGA	-0.106
ATCGAGGC	-0.0936
CAACGATG	-0.0341
GATGACAC	0.0142
ACGCCCGC	-0.11
AACTTTCG	0.0692
AATGGATA	0.0623
AGGAAAAG	0.0753
GTCTGTCA	0.0444

Sequence	PBM E-score
CCCTCTGA	-0.231
GTTCAGCA	-0.042
CATCGTCA	0.0263
GTGGGCCA	-0.142
ACTGTTAA	-0.0114
CTCTAGAG	-0.0707
AATCTGCG	0.117
AACAGTAA	0.164
ACTAGAGT	-0.0346
AAAAAGTA	0.129
CCCTTTAC	0.0116
ACAGCTCT	-0.28
ACCGCGGT	0.00914
ATATATCC	0.224
CCCTTCCG	-0.185
AGGTAGAT	-0.0424
CATTAGGA	-0.0329
GGGTGGAA	0.0356
GGTCGTAC	-0.0451
GAAGACTC	-0.229
TATTAAAA	0.205
GTGCTGAA	-0.0928
GTCCCGAC	-0.103
ACCGACGA	-0.137
CTATCCTC	-0.0993

In another format: entries from further up
CTCCGTCC
  PBM E-score = -0.302
CAGTAGCG
  PBM E-score = -0.0667

Later entries:

Sequence	PBM E-score
ATATCGGC	0.0633
TACCAGTA	0.0926
GGAAGTAC	0.0641
GACGTCGC	-0.165
CATGGGCC	-0.113
CAAGGTTC	-0.222
CCCAACTC	0.158
AAAACCTT	-0.188
GACAAGAA	0.17
AAAAGATG	0.123
CAGAACCA	-0.0997
CCGAGATC	0.0873
GATCGTAA	0.116
CGCCAGAG	-0.206
CTGCAAAA	0.0428
AACGCGAT	0.0765
ATTAGAAT	0.108
ACGCATTG	-0.0579
ATTACAGC	-0.125
